Measurements as given in publication PMC6697737.
These are yes or no findings as the source states them, for the method shown. Binding seen in cells or lysates may run through a third protein. Some binding calls cover weakened binding; strength is not graded here. Where a sequence is shown, tags or fusion partners need not be part of it.

How the values were obtained:
[1] = biological target: T1, MNS3-GFP (Arabidopsis ER-α-mannosidase I fused to GFP) (Arabidopsis thaliana) (UniProt Q93Y37); assay: FRET or BRET; two-photon FRET-FLIM in N. tabacum leaf epidermal cells treated with latrunculin B; GFP donor, mRFP acceptor; lifetimes taken at individual Golgi bodies
T1 sequence: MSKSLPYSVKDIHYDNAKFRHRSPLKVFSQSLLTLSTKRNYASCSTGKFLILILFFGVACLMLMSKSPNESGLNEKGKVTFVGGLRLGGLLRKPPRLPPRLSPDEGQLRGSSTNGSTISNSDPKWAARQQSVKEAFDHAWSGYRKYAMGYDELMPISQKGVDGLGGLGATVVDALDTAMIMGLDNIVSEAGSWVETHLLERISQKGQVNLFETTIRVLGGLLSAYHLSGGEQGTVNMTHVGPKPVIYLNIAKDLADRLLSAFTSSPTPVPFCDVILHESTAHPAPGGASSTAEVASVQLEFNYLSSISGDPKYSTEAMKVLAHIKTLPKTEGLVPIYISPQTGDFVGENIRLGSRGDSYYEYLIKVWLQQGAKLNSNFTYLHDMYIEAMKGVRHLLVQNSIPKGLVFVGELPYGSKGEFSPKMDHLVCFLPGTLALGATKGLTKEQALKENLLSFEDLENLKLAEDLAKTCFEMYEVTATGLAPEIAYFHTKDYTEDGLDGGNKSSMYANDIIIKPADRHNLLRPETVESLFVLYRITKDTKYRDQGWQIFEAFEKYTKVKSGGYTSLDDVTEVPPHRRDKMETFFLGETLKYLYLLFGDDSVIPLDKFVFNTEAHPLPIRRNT

[2] = biological target: T2, MNS3-GFP-HDEL (full-length MNS3 C-terminally tagged with GFP and the ER retrieval signal HDEL) (Arabidopsis thaliana) (UniProt Q93Y37); assay: co-IP; GFP baits co-expressed with mRFP fusions in N. benthamiana leaves; extracts in 1x PBS, 1% Triton X-100, protease inhibitors; GFP-Trap-A beads, 60-90 min at 4 °C; immunoblot with anti-GFP and anti-mRFP
T2 sequence: T1 sequence

[3] = biological target: T1, MNS3-GFP (Arabidopsis ER-α-mannosidase I fused to GFP) (Arabidopsis thaliana); assay: as above

B1: MNS1-mRFP (Arabidopsis Golgi-α-mannosidase I MNS1 fused to mRFP) (enzyme, UniProt Q9C512 1-560)
chain: MARSRSISGYGIWKYLNPAYYLRRPRRLALLFIVFVSVSMLVWDRINLAREHEVEVFKLNEEVSRLEQMLEELNGGVGNKPLKTLKDAPEDPVDKQRRQKVKEAMIHAWSSYEKYAWGKDELQPRTKDGTDSFGGLGATMVDSLDTLYIMGLDEQFQKAREWVASSLDFDKDYDASMFETTIRVVGGLLSAYDLSGDKMFLEKAKDIADRLLPAWNTPTGIPYNIINLRNGNAHNPSWAAGGDSILADSGTEQLEFIALSQRTGDPKYQQKVEKVITELNKNFPADGLLPIYINPDNANPSYSTTTFGAMGDSFYEYLLKVWVQGNKTSAVKPYRDMWEKSMKGLLSLVKKSTPSSFTYICEKNGNNLIDKMDELACFAPGMLALGASGYGPDEEKKFLSLAGELAWTCYNFYQSTPTKLAGENYFFTAGQDMSVGTSWNILRPETVESLFYLWRLTGNKTYQEWGWNIFQAFEKNSRVESGYVGLKDVNTGAKDNKMQSFFLAETLKYLYLLFSPSSVISLDEWVFNTEAHPLKIVARNDPRKPTIALRQRKFGHQINV
- binding [1]: binds weakly
- binding [2]: binds
- binding [3]: binds weakly
